For at least one compound, name, drawing or mass did not settle the structure. Some results were stated once for a whole list of compounds, not compound by compound.
Assay: in vitro drug release from drug-polymer matrices in simulated gastric fluid
Type: physicochemical
Settings: for approximately linear release of the loaded drug, share of drug load: optimal formulations, over 14 days
Experimental: To perform the release study, drug-polymer matrices ( 1 cm in length) were incubated with 50 ml of the respective release medium in a 37° C. incubator shaker at 50 rpm. At various times, 1 ml of the release medium was collected and stored at -20° C. until further analysis. The remaining medium was discarded, and the arms were incubated with fresh medium. For measuring drug concentrations in the release medium, all specimens (beam-like arms) were thawed, centrifuged at 1500 g for 10 min, and analyzed using high-performance liquid chromatography (HPLC). Depending on the drug used, the links had excipients and elasticizers added to enhance the drug release and mechanical properties, respectively. For both moxifloxacin ([…], Inc) and carbamazepine (Ark Pharm, Inc), poly(ethylene glycol) (PEG) (molecular weight-3350 Da, Spectrum Corp.), Kolliphor® P 407 (BASF), and EUDRAGIT® E PO (Evonik) were used as excipients. For carbamazepine, CarbothaneTM TPU P[…] was used as an elasticizer. For X-ray visualization, 15% weight ratio of BaSO4 was added. Various polymeric formulations were investigated for controlled release of the drugs. The in vitro drug release was also investigated by changing drug loading and the composition of excipients, as well as application of polymeric coating (using a solution of 5.4% PCL (w/v) and 0.6% EUDRAGIT® E PO (w/v) in acetone). […] Drug release may be accelerated further by the inclusion of a surfactant such as PluronicP407. Inclusion of hydrophilic excipients had similar effects on the release of carbamazepine. Release of carbamazepine increased by greater than 3-fold due to the addition of water soluble polymers such as PEG 3350 and Kolliphor® P 407 to the polymer matrix. This increase in drug release could be attributed to a higher initial burst as well as an overall increase in the rate of drug release during the zero-order phase. The initial burst could be suppressed by coating the polymer matrix with a thin layer of poly(caprolactone) and EPO (EUDRAGIT®).

| SMILES | approximately linear release of the loaded drug, share of drug load | fraction of moxifloxacin released over 2 weeks (upon increasing moxifloxacin loading from 35% w/w to 50% w/w, 37° C. SGF) | total amount of moxifloxacin release (upon increasing moxifloxacin loading from 35% w/w to 50% w/w, over 2 weeks) |
| --- | --- | --- | --- |
| NC(=O)N1c2ccccc2C=Cc2ccccc21 [carbamazepine] | up to 25% | – | – |
| COc1c(N2C[C@@H]3CCCN[C@@H]3C2)c(F)cc2c(=O)c(C(=O)O)cn(C3CC3)c12 [moxifloxacin] | up to 25% | doubled | nearly tripled |
